The results in this text go back to PubChem BioAssay AID340 (DTP/NCI, 2004).

The test relates to CD2F1 mice, ip reticulum cell sarcoma, survival T/C. Put plainly: NCI In Vivo Anticancer Drug Screen. Data for tumor model Reticulum Cell Sarcoma (Kelley Mouse) (intraperitoneal) in CD2F1 (CDF1) mice. As to conditions: T/C endpoint: median survival time, higher T/C = longer survival. On the procedure: The antitumor activity of compounds was measured in mice bearing transplantable tumors. Survival or tumor size were measured and the results are expressed as the measurement made in the treated group (T) divided by the measurement made in the vehicle treated control group (C). The tumor model used in this assay is Reticulum Cell Sarcoma (Kelley Mouse) (intraperitoneal) in CD2F1 (CDF1) mice

The mark [1] stands for this setting: dose: 12.5 mg/kg/injection, schedule: Q01DX010 (sc), vehicle: steroid suspending solution.
[2] abbreviates: dose: 50.0 mg/kg/injection, schedule: Q01DX010 (sc), vehicle: steroid suspending solution.
Where [3] appears, read: dose: 100.0 mg/kg/injection, schedule: Q01DX010 (sc), vehicle: steroid suspending solution.
The mark [4] stands for this setting: dose: 200.0 mg/kg/injection, schedule: Q01DX010 (sc), vehicle: steroid suspending solution.
Setting [5] is: dose: 2.5 mg/kg/injection, schedule: Q01DX010 (ip), vehicle: saline.
Where [6] appears, read: dose: 50.0 mg/kg/injection, schedule: Q01DX010 (ip), vehicle: saline.
[7] abbreviates: dose: 100.0 mg/kg/injection, schedule: Q01DX010 (ip), vehicle: saline.
Where [8] appears, read: dose: 250.0 mg/kg/injection, schedule: Q01DX010 (ip), vehicle: saline.
[9] abbreviates: dose: 25.0 mg/kg/injection, schedule: Q01DX010 (ip), vehicle: saline.
The mark [10] stands for this setting: dose: 0.03 mg/kg/injection, schedule: Q01DX010 (ip), vehicle: saline.
[11] abbreviates: dose: 0.25 mg/kg/injection, schedule: Q01DX010 (ip), vehicle: saline.
Where [12] appears, read: dose: 0.5 mg/kg/injection, schedule: Q01DX010 (ip), vehicle: saline.

The list does not hold the whole screen: it is rich in T/C values a quarter to a half above the control, in often repeated tests (any T/C) and in doses without a T/C. Further doses and runs are listed elsewhere. T/C gives the treated animals as a percentage of the vehicle group. Some doses have a count of surviving animals in place of a T/C: the source files T/C as zero there, which appears to mark a toxic dose or a test without result, not a measured value. Some doses without a T/C left all or most animals alive at the check, yet need not have been tolerated: survival well below the control is almost never listed, so the zero probably covers shortened survival too. Survivors were counted at the toxicity check, usually on the fifth day, unless a day is given; later deaths do not show. Schedule codes are those of the source, read here as Q, the interval in days (D) or hours (H), X, the number of doses. Some entries hold several experiments; the results are listed from low to high. For survival time, the PubChem record calls one and a half times the control and up active, and a quarter to a half above the control has no call in these data; cut-offs in other NCI protocols can differ. Brackets with × say how often a value occurs here. Some T/C values carry the count of animals alive at the toxicity check (mostly the fifth day); without a count, all were alive then.

With `C[C@]12C=CC(=O)C=C1CC[C@@H]1[C@@H]2C(=O)C[C@@]2(C)[C@H]1CC[C@]2(O)C(=O)CO`, the T/C by setting is: under setting [1], 86 (2×) and 100 % of control; (dose: 25.0 mg/kg/injection, schedule: Q01DX010 (sc), vehicle: steroid suspending solution) 86, 94 [5 of 6 alive], 97, 108 % of control; under setting [2], 86 % of control (2×); under setting [3], 87 % of control; under setting [4], 87 and 90 % of control. Moreover, the survivor count runs as follows: under setting [1], 6 of 6; under setting [2], 5 of 6 and 6 of 6; under setting [3], 3 of 6 and 6 of 6; under setting [4], 5 of 6 and 6 of 6.
On to `NC(Cc1ccc(N(CCCl)CCCl)cc1)C(=O)O` (centres undefined), for which the T/C under setting [5] was 137 % of control and the T/C (dose: 5.0 mg/kg/injection, schedule: Q01DX010 (ip), vehicle: saline) was 146 % of control. The survivor count (dose: 20.0 mg/kg/injection, schedule: Q01DX010 (ip), vehicle: saline) is 6 of 6.
As for `O=C(Nc1ccc(C2=NCCN2)cc1)c1ccc(C(=O)Nc2ccc(C3=NCCN3)cc2)c(Cl)c1`, the T/C (dose: 8.0 mg/kg/injection, schedule: Q01DX010 (ip), vehicle: other) was 142 % of control. Also, under “dose: 32.0 mg/kg/injection, schedule: Q01DX010 (ip), vehicle: other”, the survivor count is 6 of 6.
Turning to `Nc1nc(=S)c2[nH]cnc2[nH]1`, the T/C under setting [5] is 132 and 138 % of control.
With `CCN(CC)CCNc1ccc(C)c2sc3ccccc3c(=O)c12`, the T/C reads like this: under setting [6], 131 and 137 % of control; under setting [7], 128 % of control.
For `CCCCNc1ncnc2c1cnn2C`, under setting [8], the survivor count was 0 of 6 and 1 of 6.
For the molecule `CS(=O)(=O)OCCC(=O)N1CCN(C(=O)CCOS(C)(=O)=O)CC1`, the T/C is 126 and 130 % of control [5 of 6 alive] under setting [9]; 141 % of control under setting [6]; 133 % of control under setting [7].
`O=C(O)CCCc1ccc(N(CCCl)CCCl)cc1`: the survivor count is, setting by setting: (dose: 3.13 mg/kg/injection, schedule: Q01DX010 (ip), vehicle: saline) 3 of 6; under setting [9], 0 of 6.
As to `CC[C@]1(O)C[C@H]2CN(CCc3c([nH]c4ccccc34)[C@@](C(=O)OC)(c3cc4c(cc3OC)N(C=O)[C@H]3[C@@](O)(C(=O)OC)[C@H](OC(C)=O)[C@]5(CC)C=CCN6CC[C@]43[C@@H]65)C2)C1`, the T/C under setting [10] is reported as 89, 97, 115 % of control; the T/C (dose: 0.06 mg/kg/injection, schedule: Q01DX010 (ip), vehicle: saline) is on record as 87, 100, 108, 111 % of control; the T/C (dose: 0.12 mg/kg/injection, schedule: Q01DX010 (ip), vehicle: saline) was 88, 100, 102, 104 % of control; the T/C under setting [11] was 91 and 98 % of control; the T/C under setting [12] is 92 % of control. The survivor count is 6 of 6 under setting [10]; 6 of 6 under setting [11]; 4 of 6 and 6 of 6 under setting [12].
`Nc1nc2n[nH]nc2c(=O)[nH]1`: the T/C (dose: 25.0 mg/kg/injection, schedule: Q01DX010 (ip), vehicle: alkali diluted with saline) is 126 and 136 % of control; the T/C (dose: 50.0 mg/kg/injection, schedule: Q01DX010 (ip), vehicle: alkali diluted with saline) was 134 % of control (2×); the T/C (dose: 100.0 mg/kg/injection, schedule: Q01DX010 (ip), vehicle: alkali diluted with saline) is 131 and 142 % of control.
Take `Nc1c(Br)cc2c(c1Br)Cc1cc([N+](=O)[O-])ccc1-2`: the survivor count was 5 of 6 (dose: 31.3 mg/kg/injection, schedule: Q01DX010 (ip), vehicle: saline) and 5 of 6 under setting [8].
Consider `CS(=O)(=O)OCCN(CCOS(C)(=O)=O)c1ccc(N=O)cc1`, for which the T/C is, setting by setting: under setting [12], 127 and 130 % of control; (dose: 125.0 micrograms/kg/injection, schedule: Q01DX010 (ip), vehicle: saline) 141 % of control. For the same molecule, the survivor count (dose: 4.0 mg/kg/injection, schedule: Q01DX010 (ip), vehicle: saline) is listed as 6 of 6.
